Assay results taken from PMC4608839.
Results are given in words; binding and its absence hold for the method and conditions named. A result given as binding can be weak or reduced; the word gives no strength. Where a sequence is shown, tags or fusion partners need not be part of it.

Molecular target: T1, GST-Pelle (Drosophila melanogaster) (UniProt Q05652)
T1 sequence: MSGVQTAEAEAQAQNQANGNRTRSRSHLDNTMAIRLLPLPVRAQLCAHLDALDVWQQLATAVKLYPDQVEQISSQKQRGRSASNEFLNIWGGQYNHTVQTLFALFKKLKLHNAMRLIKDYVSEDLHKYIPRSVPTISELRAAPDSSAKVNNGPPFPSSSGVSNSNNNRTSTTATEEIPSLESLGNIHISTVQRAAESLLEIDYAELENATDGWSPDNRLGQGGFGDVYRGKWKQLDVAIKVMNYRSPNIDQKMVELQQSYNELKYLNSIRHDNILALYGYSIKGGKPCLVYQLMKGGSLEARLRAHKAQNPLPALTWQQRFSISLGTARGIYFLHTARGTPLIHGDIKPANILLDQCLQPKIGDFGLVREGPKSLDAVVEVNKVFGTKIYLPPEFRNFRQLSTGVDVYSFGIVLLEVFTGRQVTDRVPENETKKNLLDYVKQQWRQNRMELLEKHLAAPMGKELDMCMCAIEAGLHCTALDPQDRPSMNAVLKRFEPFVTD
Assay: pull-down; 10 μg GST-fusion protein with 10 μg purified 6xHis-dFoxo and 50 μl glutathione-Sepharose beads, 4°C for 5 hours; washed 5 times with lysis buffer; detection with anti-His antibody; both purified

“His-dFoxO (full-length, 1-622aa) (Drosophila melanogaster)” was tested, and the binding was “binds”.
